In publication PMC7455564 one finds binding data, which are given here for four molecules.

Chains of the proteins cited; added tags and fusions are not shown.
UniProt P09874: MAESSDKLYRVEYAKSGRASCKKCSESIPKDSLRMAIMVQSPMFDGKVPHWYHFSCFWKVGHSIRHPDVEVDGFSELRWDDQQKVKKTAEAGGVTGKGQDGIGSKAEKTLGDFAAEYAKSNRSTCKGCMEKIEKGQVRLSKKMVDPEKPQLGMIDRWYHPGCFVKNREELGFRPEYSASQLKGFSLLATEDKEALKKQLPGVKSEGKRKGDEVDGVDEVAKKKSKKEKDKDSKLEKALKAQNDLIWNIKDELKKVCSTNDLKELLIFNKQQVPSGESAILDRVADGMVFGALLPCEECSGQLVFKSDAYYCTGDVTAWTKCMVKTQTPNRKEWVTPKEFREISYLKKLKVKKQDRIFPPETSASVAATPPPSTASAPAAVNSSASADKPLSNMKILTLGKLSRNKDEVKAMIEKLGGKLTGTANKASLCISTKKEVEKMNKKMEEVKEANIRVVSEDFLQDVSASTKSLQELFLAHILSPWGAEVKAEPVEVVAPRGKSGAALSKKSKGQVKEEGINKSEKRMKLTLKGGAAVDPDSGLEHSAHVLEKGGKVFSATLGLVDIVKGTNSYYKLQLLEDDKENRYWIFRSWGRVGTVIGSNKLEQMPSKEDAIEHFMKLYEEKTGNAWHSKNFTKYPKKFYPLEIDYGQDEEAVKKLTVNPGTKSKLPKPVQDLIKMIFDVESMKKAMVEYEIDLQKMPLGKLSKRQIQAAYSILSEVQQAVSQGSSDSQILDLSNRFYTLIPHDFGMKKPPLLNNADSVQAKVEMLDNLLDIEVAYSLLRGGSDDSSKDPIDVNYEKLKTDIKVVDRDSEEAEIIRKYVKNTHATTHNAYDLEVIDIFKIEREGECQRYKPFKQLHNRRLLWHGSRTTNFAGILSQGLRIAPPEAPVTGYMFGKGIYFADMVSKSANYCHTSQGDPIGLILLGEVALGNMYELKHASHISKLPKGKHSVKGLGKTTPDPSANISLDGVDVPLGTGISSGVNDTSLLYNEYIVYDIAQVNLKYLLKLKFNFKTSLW

Results are given in words; binding and its absence hold for the method and conditions named. For some of these results: Binding seen in cells or lysates may run through a third protein. Some entries that bind do so weakly or less than the wild type. For some of these results: Tags and fused reporters may be left off the sequences shown.

The target of experiment [1] is T1, recombinant XRN2 (purified) (human) (UniProt Q9H0D6).
T1 sequence: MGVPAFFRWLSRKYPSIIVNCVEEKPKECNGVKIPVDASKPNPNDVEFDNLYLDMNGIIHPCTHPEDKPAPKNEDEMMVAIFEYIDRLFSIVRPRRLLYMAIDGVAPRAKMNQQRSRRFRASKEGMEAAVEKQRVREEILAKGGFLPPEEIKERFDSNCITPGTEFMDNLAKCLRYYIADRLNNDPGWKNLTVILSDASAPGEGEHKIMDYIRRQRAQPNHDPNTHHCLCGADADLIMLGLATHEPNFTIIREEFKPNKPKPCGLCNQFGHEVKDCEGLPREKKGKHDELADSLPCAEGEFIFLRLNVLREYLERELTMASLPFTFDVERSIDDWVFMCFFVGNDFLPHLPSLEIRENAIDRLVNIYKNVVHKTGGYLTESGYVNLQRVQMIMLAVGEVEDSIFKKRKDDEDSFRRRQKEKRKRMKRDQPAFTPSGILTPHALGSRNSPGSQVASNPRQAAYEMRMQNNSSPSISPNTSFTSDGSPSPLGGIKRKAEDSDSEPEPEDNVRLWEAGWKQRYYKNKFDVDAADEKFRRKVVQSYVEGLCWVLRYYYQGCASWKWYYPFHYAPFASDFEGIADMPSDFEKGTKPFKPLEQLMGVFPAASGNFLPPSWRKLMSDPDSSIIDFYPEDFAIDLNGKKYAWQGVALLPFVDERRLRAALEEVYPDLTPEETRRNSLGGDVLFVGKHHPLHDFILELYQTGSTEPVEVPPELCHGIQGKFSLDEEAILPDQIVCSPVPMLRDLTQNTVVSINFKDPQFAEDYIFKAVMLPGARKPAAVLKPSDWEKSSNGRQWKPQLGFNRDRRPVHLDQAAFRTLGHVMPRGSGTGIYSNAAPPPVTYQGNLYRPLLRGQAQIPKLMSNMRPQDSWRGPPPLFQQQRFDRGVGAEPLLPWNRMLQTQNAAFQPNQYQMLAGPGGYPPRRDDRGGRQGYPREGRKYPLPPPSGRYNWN
As to the kind of experiment: co-IP; purified XRN2 and Flag-PARP1 (5 µg each), IP with anti-XRN2 antibody, A/G plus agarose beads, overnight at 4 °C; beads as control; Western blot; both purified. (In general: In western blotting, separated proteins are transferred to a membrane and probed.)

For experiment [2], the target named is T2, XRN2 (endogenous, HeLa) (human (endogenous in HeLa)) (UniProt Q9H0D6).
T2 sequence: T1 sequence
As to the kind of experiment: SEC; gel filtration chromatography of nuclease-treated HeLa whole cell lysate; fractions analysed by Western blot; co-elution in fractions #24–29. For orientation: In gel filtration, larger molecules generally elute earlier.

Experiment [3] has as its target T3, TAP-XRN2 (5′-3′-exoribonuclease 2 with a tandem affinity purification tag) (human) (UniProt Q9H0D6).
T3 sequence: T1 sequence
As to the kind of experiment: co-IP; whole-cell lysate of HEK 293 T TAP-XRN2 cells in 1× TNE buffer (100 mM Tris–HCl pH 7.5, 150 mM NaCl, 0.1 mM EDTA, 0.1% NP-40), ~1 mg protein, 10 µg anti-XRN2 antibodies, A/G plus agarose beads, overnight at 4 °C; beads without antibody as control; Western blot.

Experiment [4] has as its target recombinant Flag-PARP1 (purified) (UniProt P09874). Put plainly: co-IP; purified XRN2 and Flag-PARP1 (5 µg each), IP with anti-PARP1 antibody, A/G plus agarose beads, overnight at 4 °C; beads as control; Western blot; both purified.

With “recombinant Flag-PARP1 (purified) (from UniProt P09874 1-1014)”, the binding entry in experiment [1] is listed as “binds”.

With “PARP1 (endogenous, HeLa) (from UniProt P09874 1-1014)”, the binding result in experiment [2] is listed as “binds”.

B1: NONO (p54(nrb)) (protein, UniProt Q15233 1-471)
chain: MQSNKTFNLEKQNHTPRKHHQHHHQQQHHQQQQQQPPPPPIPANGQQASSQNEGLTIDLKNFRKPGEKTFTQRSRLFVGNLPPDITEEEMRKLFEKYGKAGEVFIHKDKGFGFIRLETRTLAEIAKVELDNMPLRGKQLRVRFACHSASLTVRNLPQYVSNELLEEAFSVFGQVERAVVIVDDRGRPSGKGIVEFSGKPAARKALDRCSEGSFLLTTFPRPVTVEPMDQLDDEEGLPEKLVIKNQQFHKEREQPPRFAQPGSFEYEYAMRWKALIEMEKQQQDQVDRNIKEAREKLEMEMEAARHEHQVMLMRQDLMRRQEELRRMEELHNQEVQKRKQLELRQEEERRRREEEMRRQQEEMMRRQQEGFKGTFPDAREQEIRMGQMAMGGAMGINNRGAMPPAPVPAGTPAPPGPATMMPDGTLGLTPPTTERFGQAATMEGIGAIGGTPPAFNRAAPGAEFAPNKRRRY
With B1, in experiment [3], the binding entry is “binds”.

B2: recombinant XRN2 (purified) (protein, UniProt Q9H0D6 1-950)
chain: T1 sequence
As to B2, the binding result in experiment [4] is “binds”.
